Screen size: about 330,000 compounds; about 7,700 (2.3%) were called active. Inconclusive means that the source gave no clear call. Such entries were picked first, then a sample of the others. Calls follow the shape of the dose curve; as a rule, active = well fitted inhibition curve with a large enough effect; inconclusive = small, poorly fitted or top-dose-only effect, or effect the other way; inactive = flat fitted curve, though single readings scatter. A potency beside an inconclusive call is a rough fit, not a confirmed value.
Assay: qHTS screen for small molecules that inhibit ELG1-dependent DNA repair in human embryonic kidney (HEK293T) cells expressing luciferase-tagged ELG1; also: nearly all actives have a fitted effect of over 55% in size
Details: HEK293T ELG1-luciferase reporter, luminescence, 16 h, DNA damage induced by 5-fluorouridine; series mostly up to 46.1 µM
In short: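 DMSO vehicle served as the neutral condition. Each well held 2,000 cells given 5-fluorouridine plus compound; after 16 hr at 37 °C/5% CO2, ONE-Glo was added and luciferase measured 30 min later.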
Potency is read from the fitted curve at half-maximal effect.

| SMILES | Potency |
| --- | --- |
| COc1cc(C(=O)NCCOc2ccc(Cl)cc2)ccc1OCc1c(C)noc1C | inactive |
| O=C(CN(Cc1cccs1)C(=O)CN1C(=O)COc2ccccc21)NCc1ccco1 | inactive |
| COc1ccc(/C=C/c2nnc(NC(C)=O)s2)cc1 | inconclusive: 2.91 µM [activator, full curve] |
| O=C(O)C1CC=CCC1C(=O)Nc1cccc(Cl)c1Cl (centres undefined) | inconclusive: 20.6 µM [activator, partial curve, poor fit] |
| CCc1ccc(-c2cc(C(=O)NN3CCN(C)CC3)c3ccccc3n2)cc1 | inconclusive: 11.6 µM [activator, partial curve] |
| COc1ccc2nc(NC(=O)NC3CCCCC3)sc2c1 | inconclusive: 2.59 µM [activator, full curve] |
| CC(C)C(=O)NC(=S)Nc1ccccc1F | inactive |
| O=C(Oc1ccc(NC(=O)c2cc3c(cc2Br)OCO3)cc1)c1ccccc1 | inconclusive: 25.9 µM [activator, partial curve, poor fit] |
| COc1ccc(OCc2nnc(SCC(=O)N3C(C)CCCC3C)o2)cc1 (centres undefined) | inconclusive: 25.9 µM [inhibitor, single point] |
| O=C(O)c1cc(N/N=C/c2ccc3c(c2)OCO3)ccc1Cl | inconclusive: 0.651 µM [activator, full curve] |
| O=C(N/N=C/c1ccccn1)c1cc(C2CC2)nc2ccccc12 | inactive |
| Cn1ncc2c(O/N=C(\N)c3ccc(C(C)(C)C)cc3)ncnc21 | inconclusive: 29.1 µM [inhibitor, single point] |
| CC(=O)c1sc(NC(=O)CCOc2ccccc2)nc1C | inconclusive: 23.1 µM [activator, partial curve] |
| Cc1ccc(NC2=Nc3ccccc3CC2)cc1 | inconclusive: 1.84 µM [activator, partial curve] |
| Cc1ccc2nc(NC(=O)c3cc(-c4ccco4)nc4ccccc34)sc2c1 | inactive |
| COc1ccc(CC(=O)NNC(=O)c2cccs2)cc1 | inconclusive: 23.1 µM [activator, single point] |
| O=C(Nc1ccccc1)N(CCN1CCOCC1)Cc1cccc(Cl)c1 | inactive |
| Cc1cccc(/C=N/NC(=O)c2cc3c(s2)-c2ccccc2CC3)c1 | inconclusive: 18.4 µM [inhibitor, partial curve, poor fit] |
| COc1c(Cl)cc(C(=O)NCc2ccco2)cc1Cl | inconclusive: 20.6 µM [inhibitor, single point] |
| COc1cc(OC)cc(C(=O)NC2CCSc3ccccc32)c1 (centres undefined) | inactive |
| C(=C\c1ccccc1)/CSc1nnc(-c2cnccn2)n1Cc1ccco1 | inconclusive: 32.6 µM [inhibitor, single point] |
| COc1ccc(C(=O)NC(=S)Nc2ccc(N3CCCC3)cc2)cc1 | inconclusive: 6.51 µM [inhibitor, single point] |
| CC(=O)N/C(=N/c1nc(C)cc(C)n1)Nc1cc(C)cc(C)c1 | inconclusive: 18.3 µM [inhibitor, single point] |

| SMILES | Potency |
| --- | --- |
| COc1ccc(CCNC(=O)CN2CCN(c3cccc(Cl)c3)CC2)cc1OC | inconclusive: 29.1 µM [inhibitor, single point] |
| Cc1cc(C)nc(CCNC(=O)C2CCC(=O)N(Cc3ccccc3F)C2)n1 (centres undefined) | inconclusive: 20.6 µM [activator, single point] |
| CCOC(=O)c1cc2c(=O)n3ccccc3nc2n(Cc2ccco2)c1=NC(=O)c1ccccc1OCC | inconclusive: 1.46 µM [inhibitor, partial curve, poor fit] |
| CCOc1cc(-c2noc(CCCC(=O)NC3CCCCC3)n2)ccc1OC | inconclusive: 20.6 µM [inhibitor, single point] |
| COc1cc(CNC2CCCC2)cc(OC)c1OC | inactive |
| COc1ccc(Cc2nnc(NC(=O)c3cc(OC)cc(OC)c3)s2)cc1 | inconclusive: 11.2 µM [inhibitor, partial curve, poor fit] |
| Cc1cc(C(=O)Nc2ccc3[nH]ccc3c2)no1 | inconclusive: 10.3 µM [activator, partial curve] |
| O=C(Nc1nccs1)c1cn(-c2ccccc2)nc1-c1ccccc1 | inconclusive: 25.9 µM [inhibitor, partial curve] |
| COc1ccc(S(=O)(=O)Nc2cc(C(C)C)c(O)cc2C)cc1 | inactive |
| CC1(C)CN=C(N(Cc2ccccc2)C(=O)Nc2ccccc2)S1 | inconclusive: 16.4 µM [activator, partial curve] |
| Oc1ccc(C=Nc2ccc(N3CCOCC3)cc2)c(O)c1 | inactive |
| O=C(Nc1ccccc1)N1CCC(C(=O)N2CCN(c3ccccc3F)CC2)CC1 | inconclusive: 5.17 µM [activator, single point] |
| Cc1ccc(S(=O)(=O)n2ccc3c(OCCOCCNCc4ccc(F)cc4)cccc32)cc1 | inconclusive: 9.2 µM [inhibitor, partial curve, poor fit] |
| CC1=CC(=O)N(c2ccn(C)n2)C1=O | inconclusive: 20.6 µM [activator, single point] |
| Nc1nnc(SCCCC(=O)c2ccccc2)s1 | inconclusive: 18.4 µM [activator, partial curve] |
| CC(/C=N/NC(=O)Cc1cccn1C)=C\c1ccccc1 | inconclusive: 20.6 µM [activator, partial curve] |
| Cc1nc(C)c(CCNC(=O)c2ccc(C(F)(F)F)cc2)s1 | inconclusive: 14.6 µM [activator, single point] |
| Cc1nnc(SC(C)C(=O)Nc2ccc(S(=O)(=O)N3CCCCCC3)cc2)s1 (centres undefined) | inconclusive: 18.4 µM [inhibitor, single point] |
| COc1cccc(NC(=O)[C@H](NC(=O)[C@@H]2Cc3ccccc3CN2)c2ccccc2)c1 | inconclusive: 16.4 µM [activator, single point] |
| O=C1/C(=C/c2cccs2)Cc2ccccc21 | inconclusive: 20.6 µM [activator, partial curve] |
| Oc1c(C(Nc2cccc(C(F)(F)F)c2)c2cccnc2)ccc2cccnc12 (centres undefined) | inactive |
| CCC1CN(C(=O)NCc2cccc(OC)c2)c2ccccc2O1 (centres undefined) | inactive |
| COc1cccc(N2CCN(CC(=O)C34CC5CC(CC(C5)C3)C4)CC2)c1 | inactive |

| SMILES | Potency |
| --- | --- |
| COCCCN1C(=O)C(=O)/C(=C(/O)c2ccc(OC)cc2)C1c1ccc(O)c(OC)c1 (centres undefined) | inconclusive: 18.4 µM [activator, partial curve, poor fit] |
| COC(=O)C(=O)C/C(=N/Nc1ncnc2ccccc12)c1ccc(Cl)cc1 | inactive |
| COc1ccc(-c2[nH]c(-c3ccccc3)nc2SCC(=O)NC2CCCC2)cc1 | inconclusive: 29.1 µM [inhibitor, partial curve, poor fit] |
| N#Cc1nc(Cc2cccc3ccccc23)oc1NCC1CCCO1 (centres undefined) | inconclusive: 25.9 µM [inhibitor, partial curve, poor fit] |
| O=C(NNC(=O)c1ccc(S(=O)(=O)N2CCCCC2)cc1)c1ccc(F)cc1 | inactive |
| CCc1cccc(C)c1Nc1nc2ccccc2n2cnnc12 | inconclusive: 29.1 µM [inhibitor, single point] |
| COc1cccc(NC(=O)c2ccc(CN3CCc4ccccc4C3)cc2)c1 | inconclusive: 0.92 µM [inhibitor, full curve] |
| COC(=O)c1ccccc1S(=O)(=O)N1CCC(c2nc3ccccc3o2)CC1 | inconclusive: 18.4 µM [inhibitor, single point] |
| Cc1c(/C(O)=C2\C(=O)C(=O)N(CCN(C)C)C2c2cccnc2)cnn1-c1ccccc1 (centres undefined) | inconclusive: 0.231 µM [inhibitor, single point] |
| COc1cccc(NC(=O)c2ccccc2C(F)(F)F)c1 | inconclusive: 3.26 µM [inhibitor, full curve] |
| O=C(CN1C(=O)c2ccccc2C1=O)c1ccc(F)cc1 | inconclusive: 20.6 µM [activator, partial curve, poor fit] |
| COc1cc(OC)cc(C(=O)NCC2CCCN(Cc3cccc(C(C)=O)c3)C2)c1 (centres undefined) | inactive |
| CCCn1c(C)cc(C(=O)COC(=O)c2ccc(Cl)c(S(=O)(=O)N3CCCC3)c2)c1C | inconclusive: 23.1 µM [inhibitor, partial curve, poor fit] |
| CC(=O)NCC1COc2ccccc2O1 (centres undefined) | inactive |
| Cc1ccc(/C=N/n2c(COc3ccccc3)n[nH]c2=S)cc1 | inactive |
| c1ccc(CN=C2NN=C(c3ccccc3)CS2)cc1 | inconclusive: 3.26 µM [activator, full curve] |
| CCOc1ccccc1C1NC(=O)NC(C)=C1C(=O)OC1CCCCC1 (centres undefined) | inactive |
| CCc1ccc(-c2nc(CN3CCCC(C(=O)NCCc4ccc(OC)c(OC)c4)C3)c(C)o2)cc1 (centres undefined) | inconclusive: 17.8 µM [inhibitor, partial curve, poor fit] |
| COc1c(CC=C(C)C)cc(C2CC(=O)c3c(O)cc(O)cc3O2)cc1CC=C(C)C (centres undefined) | inconclusive: 29.1 µM [inhibitor, single point] |
| O=C(COc1ccccc1)Nc1nc(-c2ccncc2)cs1 | inactive |
| O=C(Nc1ncccc1O)c1cccc(S(=O)(=O)NCc2ccccc2)c1 | inconclusive: 3.66 µM [inhibitor, partial curve, poor fit] |
| CCOC(=O)c1c(C)[nH]c(C)c1C(=O)COC(=O)c1cccc(S(=O)(=O)NC)c1 | inconclusive: 20.6 µM [inhibitor, single point] |
| COc1ccccc1NS(=O)(=O)c1cc(NC(=O)c2ccccc2[N+](=O)[O-])ccc1N1CCOCC1 | inconclusive: 29.1 µM [inhibitor, single point] |

6 of the compounds above, comma-delimited:
SMILES,Potency
Cc1ccc2nc(NC(=O)c3cc(-c4ccco4)nc4ccccc34)sc2c1,inactive
COc1ccc(CC(=O)NNC(=O)c2cccs2)cc1,"inconclusive: 23.1 µM [activator, single point]"
O=C(Nc1ccccc1)N(CCN1CCOCC1)Cc1cccc(Cl)c1,inactive
Cc1cccc(/C=N/NC(=O)c2cc3c(s2)-c2ccccc2CC3)c1,"inconclusive: 18.4 µM [inhibitor, partial curve, poor fit]"
COc1c(Cl)cc(C(=O)NCc2ccco2)cc1Cl,"inconclusive: 20.6 µM [inhibitor, single point]"
COc1cc(OC)cc(C(=O)NC2CCSc3ccccc32)c1 (centres undefined),inactive

Source: PubChem BioAssay AID504467 (National Center for Advancing Translational Sciences (NCATS), 2011)
